Values from PubChem BioAssay AID504804 (Drosophila RNAi Screening Center, 2011).

Test: 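dsRNAs that improve Kc cell survival under doxorubicin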 (primary screen)
Cell system: Drosophila Kc cells
Reagent: long dsRNA against Drosophila genes, 0.5 µg dsRNA per well
Timing: 96 h (48 h knock-down, then 48 h drug)
Conditions: doxorubicin 5 µg/ml for 48 h, added 48 h after dsRNA
Detection: 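Luminescent ATP counts per replicate, not normalised, reflecting viable cells after 48 h dsRNA knock-down followed by 48 h of 5 µg/ml doxorubicin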
Direction: raw ATP luminescence: higher = more viable cells, protection from doxorubicin
Active means: 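z-score of 2 or more over plate mean in both duplicates, retained only when retests and separate dsRNAs confirm the protection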
The deposit covers about 19,000 reagents; below is a random part of those with a known target gene and a result. Over the whole deposit, 47 (0.25%) got an active call. 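Signals are raw, not normalised; exact z-scores behind calls not deposited; actives needed confirmation, so some wells reaching 2 SD are inactive.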 A number with no mark means an inactive call. Names joined by + are all predicted targets of the reagent.

no.	predicted target	dsRNA	SD above plate mean	raw ATP luminescence, replicate 1	raw ATP luminescence, replicate 2
1	ifc	DRSC03549		1.04e5	71460
2	byn	DRSC11332		65503	64540
3	CG15262	DRSC01975		58383	67797
4	Spn88Eb	DRSC16093		85890	17350
5	Vti1b	DRSC16283		43090	37617
6	Vti1b	DRSC16284		74200	95380
7	gammaTub23C	DRSC00820		1.19e5	55243
8	Nepl11	DRSC12333		28580	37210
9	CG10336	DRSC02037		79643	71793
10	mgl	DRSC17800		3.52e5	3.19e5
11	mgl	DRSC17859		3.61e5	3.60e5
12	mgl	DRSC18004		3.23e5	3.28e5
13	CG13033	DRSC09913		54700	44067
14	ClC-c	DRSC10499		22420	20367
15	CG6674	DRSC10692		48640	48107
16	CG5989	DRSC10565		38710	29933
17	g	DRSC20335		3.45e5	2.70e5
18	CG9231	DRSC11054		20950	20073
19	CG13733	DRSC10061		67620	49810
20	CG5445	DRSC19943		1.11e5	1.25e5
21	Lrr47	DRSC03365		1.03e5	1.01e5
22	Ssu72	DRSC19572		3.21e5	2.95e5
23	mus304	DRSC11372		91463	82763
24	CG7882	DRSC04899		61163	46307
25	Ent2	DRSC02124		1.25e5	82267
26	CRIF	DRSC11811		65103	54757
27	CG9164	DRSC19087		1.87e5	1.71e5
28	CG13404	DRSC19536		3.86e5	3.04e5
29	CNMaR	DRSC08992		1.12e5	1.06e5
30	CNMaR	DRSC10224	at least 3 SD above plate mean (active)	1.27e5	1.62e5
31	parvin	DRSC19468		1.79e5	2.10e5
32	Pomp	DRSC03201		37850	35357
33	Cyp28d2	DRSC03299		23160	35633
34	Alg10	DRSC10892		82283	85000
35	CG3376	DRSC04362	at least 2 SD above plate mean	98503	88967
36	Srlp	DRSC15890		42887	45723
37	CG8677 + CG31626	DRSC01838		95463	67467
38	Dref	DRSC03319		84640	68063
39	Jon65Aiv	DRSC10644		80720	70813
40	Ekar	DRSC17161		49400	73240
41	klhl10	DRSC05274		65073	82190
42	klhl10	DRSC19171		2.81e5	2.71e5
43	klhl10	DRSC20750		3.16e5	3.18e5
44	klhl10	DRSC20925		2.08e5	1.78e5
45	CG10237	DRSC02029		86750	65183
46	rib	DRSC07021		73253	67707
47	dyl	DRSC08466		40553	41087
48	dyl	DRSC08467	at least 2 SD above plate mean (active)		
49	CG15535	DRSC15071		39650	41390
50	CG8757	DRSC11039		59473	59650
51	CG34409	DRSC14577		60940	50560
52	dsf	DRSC03524		31210	35310
53	piwi	DRSC03592		94157	55980
54	CG31793	DRSC02605		43930	60787
55	CG3355	DRSC00598		37143	30510

Records listed above with an active call (2):
predicted target	dsRNA	SD above plate mean	raw ATP luminescence, replicate 1	raw ATP luminescence, replicate 2
CNMaR	DRSC10224	at least 3 SD above plate mean (active)	1.27e5	1.62e5
dyl	DRSC08467	at least 2 SD above plate mean (active)		

The list goes on.
no.	predicted target	dsRNA	SD above plate mean	raw ATP luminescence, replicate 1	raw ATP luminescence, replicate 2
56	hook	DRSC03545		83820	55340
57	CG13711	DRSC08320		84620	76197
58	CG6928	DRSC10749		36220	34843
59	CG1738	DRSC19772		2.88e5	3.01e5
60	CG15014	DRSC08468		64957	85147
61	tefu	DRSC16060		79120	56610
62	CG32112	DRSC09815		72733	73873
63	CG10317	DRSC14229		66570	62100
64	slv	DRSC07685		51717	67933
65	CG13744	DRSC06415		42310	86460
66	Slob (retired record)	DRSC03436		1.04e5	73573
67	tgo	DRSC17077		86220	42003
68	futsch	DRSC17688		2.03e5	2.10e5
69	futsch	DRSC17949		50080	50670
70	futsch	DRSC18543		43830	52520
71	alpha-Spec	DRSC08704		67213	64337
72	jbug	DRSC03952		68037	69907
73	jbug	DRSC04114		67260	59000
74	jbug	DRSC04167		90340	72857
75	jbug	DRSC04388		48030	58463
76	CG31826	DRSC03357		70573	83000
77	CG5399	DRSC15791		63690	57450
78	cbt	DRSC00655		1.19e5	88107
79	Prp8	DRSC07293		73637	50743
80	mle	DRSC04921		50670	44570
81	zen2	DRSC12633		76210	79323
82	CG3301	DRSC15471		48907	33700
83	nmdyn-D7	DRSC17016		54873	67550
84	CG9394	DRSC04550		43603	47820
